Values quoted from earlier work in US20120165315A1, “[…] PRODRUG SALTS” (priority 2010, published 2012).
The name of at least one read-out is uncertain.

Settings: Goth et al. 1997; cited from earlier work

Structure (SMILES): CCC(=O)Oc1ccc2c3c1O[C@H]1[C@@H](O)C=C[C@H]4[C@@H](C2)N(C)CC[C@@]341 [morphine-3-propionate]
- half-life of hydrolysis in human plasma: less than 5 minutes
